Results deposited as PubChem BioAssay AID1259424 (University of Nebraska Medical Center, 2018)

Aim: 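Seek colon cancer survival genes behaving like KSR1, using a six-gene signature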 (primary screen)
Cells: human HCT116 colon cancer cells
Reagent: siRNA pool against human genes, 50 nM
Measured: 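Log2 levels of six mRNAs (branched-DNA multiplex), adjusted by two reference genes and the non-targeting median, then scored against the average KSR1 knockdown pattern as Pearson r and euclidean distance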
Direction: mean correlation with KSR1 profile: higher = expression change more like KSR1 knockdown; mean distance from KSR1 profile: higher = expression change less like KSR1 knockdown
The deposit covers about 14,000 reagents; below is an unselected part. 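Higher correlation or smaller distance means closer resemblance to KSR1 loss; control wells, including KSR1 knockdowns, recur on many plates.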 Not all columns of the deposit are shown. Not stated in the record: the time to read-out.

MARF1 (GeneID 9665) [SID363999008]
- mean correlation with KSR1 profile: -0.596
- mean distance from KSR1 profile: 1.78

DANCR (GeneID 57291) [SID364005504]
- mean correlation with KSR1 profile: -0.678
- mean distance from KSR1 profile: 4.12

SLC25A39 (GeneID 51629) [SID363999796]
- mean correlation with KSR1 profile: -0.593
- mean distance from KSR1 profile: 6.84

WASHC4 (GeneID 23325) [SID363999391]
- mean correlation with KSR1 profile: -0.571
- mean distance from KSR1 profile: 4.22

TNS3 (GeneID 64759) [SID364002523]
- mean correlation with KSR1 profile: -0.221
- mean distance from KSR1 profile: 4.58

TUBA1A (GeneID 7846) [SID363996862]
- mean correlation with KSR1 profile: -0.013
- mean distance from KSR1 profile: 2.32

FABP7 (GeneID 2173) [SID363992708]
- mean correlation with KSR1 profile: 0.0804
- mean distance from KSR1 profile: 1.75

TUBA3C (GeneID 7278) [SID363996855]
- mean correlation with KSR1 profile: -0.107
- mean distance from KSR1 profile: 4.33

USO1 (GeneID 8615) [SID363994784]
- mean correlation with KSR1 profile: 0.617
- mean distance from KSR1 profile: 1.59

FDPS (GeneID 2224) [SID363993216]
- mean correlation with KSR1 profile: -0.0604
- mean distance from KSR1 profile: 2.21

NOTCH2 (GeneID 4853) [SID364002813]
- mean correlation with KSR1 profile: 0.272
- mean distance from KSR1 profile: 1.85

TMCO6 (GeneID 55374) [SID364001120]
- mean correlation with KSR1 profile: -0.835
- mean distance from KSR1 profile: 2.82

Only “mean correlation with KSR1 profile”, for 2 of the entries above:
FDPS (GeneID 2224) [SID363993216]	-0.0604
NOTCH2 (GeneID 4853) [SID364002813]	0.272
